# Measurements: PMC10515265
# Construct, isoform or probe ends are uncertain for at least one entry. For part of these data: No signal at the amounts used counts as a negative.
# Tests used:
# [1] = system: GST-RhNAP; assay: competition with a labelled probe; details: unlabeled competitor 10x to 100x against biotin probe, signal gradually weakened; LightShift chemiluminescent EMSA kit (Pierce), per manufacturer; native PAGE; 3 ug protein, 25 pM biotin probe; pH and temperature not stated; recombinant protein
# [2] = system: GST-RhNAP; assay: EMSA; details: 3 ug protein, 25 pM probe, LightShift chemiluminescent EMSA kit (Pierce), per manufacturer, native PAGE, 25 pM biotin probe, pH and temperature not stated, recombinant protein
# [3] = system: GST; assay: EMSA; details: GST control, no band; LightShift chemiluminescent EMSA kit (Pierce), per manufacturer; native PAGE; 3 ug protein, 25 pM biotin probe; pH and temperature not stated; recombinant protein
Sequence,binding result [1],binding result [2],binding result [3]
CTCATCTGATCATTCACGTGCGCAAGACATG (double strand) [RhCKX6 promoter 31-bp unlabeled competitor],binds,,
CTCATCTGATCATTCACGTGCGCAAGACATG (double strand) [RhCKX6 promoter 31-bp probe (-558 to -528)],,binds,no binding
